No constants are given. Whether binding was seen depends on the method and setting. In cells and extracts the contact can be indirect. Some entries that bind do so weakly or less than the wild type. Tags and fused reporters may be left off the sequences shown. Values belong to the molecule of their own block, whether it stands above or below them.
Assays:
[1] = target: T1, Suppressor of Ras (SUR-8), FLAG-tagged (Drosophila) (UniProt Q9VEK6); experiment: co-IP; anti-FLAG immunoprecipitation of SUR-8-FLAG from head extracts of flies overexpressing PER, SUR-8-Flag and PP1-87B-HA with tim-GAL4, heads collected at ZT19 (also compared with ZT1); western blot
T1 sequence: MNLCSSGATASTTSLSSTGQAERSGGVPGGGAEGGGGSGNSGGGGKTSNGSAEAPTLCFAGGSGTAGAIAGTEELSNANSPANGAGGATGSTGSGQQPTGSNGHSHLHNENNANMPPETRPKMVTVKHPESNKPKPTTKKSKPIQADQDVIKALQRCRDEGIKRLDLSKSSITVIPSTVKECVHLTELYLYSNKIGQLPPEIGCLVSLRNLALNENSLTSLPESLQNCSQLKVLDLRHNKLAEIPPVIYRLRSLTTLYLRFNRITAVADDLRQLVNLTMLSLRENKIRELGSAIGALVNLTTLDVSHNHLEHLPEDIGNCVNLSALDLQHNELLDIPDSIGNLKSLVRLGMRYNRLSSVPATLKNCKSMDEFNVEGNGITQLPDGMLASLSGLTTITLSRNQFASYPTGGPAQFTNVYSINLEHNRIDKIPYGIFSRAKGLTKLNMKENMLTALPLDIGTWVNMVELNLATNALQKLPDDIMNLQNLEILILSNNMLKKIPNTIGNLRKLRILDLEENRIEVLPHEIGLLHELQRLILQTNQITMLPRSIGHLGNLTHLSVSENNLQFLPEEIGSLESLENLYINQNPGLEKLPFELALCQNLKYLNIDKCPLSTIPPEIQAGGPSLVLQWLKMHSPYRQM

Sequences of proteins named here, by UniProt entry; tags and fusion partners are left off.
UniProt P12982: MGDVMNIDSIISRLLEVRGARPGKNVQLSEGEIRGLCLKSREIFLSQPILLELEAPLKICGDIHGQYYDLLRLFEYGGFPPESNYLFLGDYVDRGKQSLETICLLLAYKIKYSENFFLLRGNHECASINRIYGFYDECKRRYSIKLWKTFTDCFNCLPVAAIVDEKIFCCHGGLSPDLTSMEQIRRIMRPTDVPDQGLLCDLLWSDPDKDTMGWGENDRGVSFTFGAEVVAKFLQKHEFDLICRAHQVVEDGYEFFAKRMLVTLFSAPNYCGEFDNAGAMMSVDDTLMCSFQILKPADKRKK

[2] = target: PERIOD (PER) (Drosophila) (UniProt P07663); experiment: co-IP; anti-PER immunoprecipitation from head extracts of flies overexpressing PER, SUR-8-Flag and PP1-87B-HA with tim-GAL4, heads collected at ZT19; also done without SUR-8 overexpression and with Sur-8 knockdown; antibody overnight at 4°C, Protein G beads 2 hours, western blot

binding [1]: binds
Molecule: PERIOD (PER) (from UniProt P07663 1-1218)

binding [2]: binds | binding [1]: binds
Molecule: protein phosphatase 1 catalytic subunit PP1-87B, HA-tagged (from UniProt P12982 1-302) (enzyme)

binding [2]: binds
B1: Suppressor of Ras (SUR-8), FLAG-tagged (protein, UniProt Q9VEK6 1-641)
chain: T1 sequence

Source: publication PMC6874087
